We go through 25 compounds from the supplement of paper PMC12578635.

The list shows a part of the results. Rule as the data show it: active = 150% or more and inactive = the rest. Most values come without repeats; read them as rough.

This assay relates to Staphylococcus aureus JE2-lux inside RAW 264.7 macrophages. Nature of the assay: intracellular bacterial bioluminescence relative to DMSO vehicle; higher = higher intracellular bacterial metabolic activity. The settings on record: 10 µM; treatment time 4 h; gentamicin 50 µg/ml.
Take `COc1ccc(C2=NN(S(C)(=O)=O)C(c3cn(-c4ccccc4)nc3-c3ccc(C)cc3)C2)cc1` (stereo not given): the intracellular bacterial bioluminescence was inactive: 125%. With `NC(=O)COc1ccc2c(-c3cc4cc(Cl)ccc4oc3=O)cc(=O)oc2c1` the figure was inactive: 121%; with `N=C1N=C(O)NC(=O)/C1=N/Nc1cccc(Br)c1`, inactive: 123%; with `O=C1Nc2ccc(CNS(=O)(=O)c3ccccc3)c3cccc1c23`, inactive: 98.2%.

With `CCc1c(C)nc2ncnn2c1Sc1ccc(N(C)C)cc1`, the intracellular bacterial bioluminescence is inactive: 79.5%. `O=C(Cc1ccc(Cl)cc1)Oc1coc(CSc2ncccn2)cc1=O`: the intracellular bacterial bioluminescence is inactive: 114%. Turning to `Cn1c2ccc(F)cc2c2nnc(SCC(=O)N3CCCc4ccccc43)nc21`, the intracellular bacterial bioluminescence is inactive: 68.7%. For the compound `COC(=O)CSc1ncnc2c1cnn2-c1ccc(F)cc1`, the intracellular bacterial bioluminescence is inactive: 74.2%. For the compound `Cc1cccc2c(O)c(C(=O)NCCN3CCOCC3)cnc12`, the intracellular bacterial bioluminescence is inactive: 103%. To `CSc1nc2ccc3nc(NC(=O)c4cc5ccccc5oc4=O)sc3c2s1` belongs inactive: 84.7%; to `Cc1cc(CNC(=O)Cn2cnc3sc(C)cc3c2=O)c2[nH]c(C)c(C)c2c1`, inactive: 83.9%. To `O=C(Cn1nc(-c2ccccc2)c2cnc3ccc(F)cc3c21)NC1CCCC1` belongs inactive: 113%; to `C=CCN1C(=O)SC(CC(=O)Nc2ccc(C)cc2)C1=O` (stereo not given), inactive: 97.7%; to `Cc1ccc(COc2ccc([N+](=O)[O-])cc2/C=C2\SC(=O)NC2=S)cc1`, inactive: 112%.

Regarding `COc1ccc2[nH]c3nc(SCC(=O)Nc4ccc(C(=O)NC5CC5)cc4)nnc3c2c1`, the intracellular bacterial bioluminescence is inactive: 90.1%. With `Cc1ccccc1C(=O)NC1CC2CCCC(C1)N2C(=S)Nc1ccccc1` (stereo not given) the figure was inactive: 113%.

For `O=C(NCCc1csc(-c2ccc(C(F)(F)F)cc2)n1)c1ccc2c(c1)OCO2`, the intracellular bacterial bioluminescence was inactive: 117%. To `Cc1ccc(C(=O)Nc2cc3c4c(c2)CCN4C(=O)CC3)cc1C` belongs active: 156%; to `CC(=O)c1cccc(NC(=O)CSc2nnc(Cn3nnc4ccccc43)n2C)c1`, inactive: 99.3%. To `CCCn1c(=O)c(=O)[nH]c2cc(-c3noc(COc4ccccc4)n3)ccc21` belongs inactive: 24.5%; to `O=C1C(=O)N(CCOc2ccc(Cl)cc2)c2ccccc21`, inactive: 83.8%. To `O=C(NCc1ccccc1)N1CCCC1c1nc(-c2cnccn2)n[nH]1` (stereo not given) belongs inactive: 101%; to `CC1CCN(S(=O)(=O)c2ccc(NC(=S)NC(=O)C3CC3)cc2)CC1`, inactive: 77.9%; to `CCOc1ccc2nc(NC(=O)CSc3nnc4c(n3)[nH]c3ccccc34)sc2c1`, active: 167%.

On to `Cc1ccc(Nc2c(C(=O)NC(C)CCc3ccccc3)cnc3c2c(C)nn3C)cc1` (stereo not given), for which the intracellular bacterial bioluminescence is inactive: 24.1%.
